# Source: PMC10814579
# No constants are given. Whether binding was seen depends on the method and setting. Binding seen in cells or lysates may run through a third protein. Some results given as binding are weak or reduced against the parent protein; the word gives no strength.
# B1: PARP1, P11103 1-1013 (protein)
# chain: MAEASERLYRVQYAKSGRASCKKCSESIPKDSLRMAIMVQSPMFDGKVPHWYHFSCFWKVGQSIRHPDVEVDGFSELRWDDQQKVKKTAEAGGVAGKGQDGSGGKAEKTLGDFAAEYAKSNRSMCKGCLEKIEKGQMRLSKKMVDPEKPQLGMIDRWYHPTCFVKKRDELGFRPEYSASQLKGFSLLSAEDKEALKKQLPAIKNEGKRKGDEVDGTDEVAKKKSRKETDKYSKLEKALKAQNELIWNIKDELKKACSTNDLKELLIFNQQQVPSGESAILDRVADGMAFGALLPCKECSGQLVFKSDAYYCTGDVTAWTKCMVKTQNPSRKEWVTPKEFREISYLKKLKVKKQDRIFPPESSAPITVHWPLSVTSAPTAVNSSAPADKPLSNMKILTLGKLSQNKDEAKAVIEKLGGKLTGSANKASLCISIKKEVEKMNKKMEEVKEANIRVVSEDFLQDVSASTKSLQDLLSAHSLSPWGAEVKAEPGEVVAPRGKSAAPSKKSKGCFKEEGVNKSEKRMKLTLKGGAAVDPDSGLEHSAHVLEKGGKVFSATLGLVDIVKGTNSYYKLQLLEDDKESRYWIFRSWGRLGTVIGSNKLEQMPSKEEAVEQFMKLYEEKTGNAWHSKNFTKYPKKFYPLEIDYGQDEEAVKKLTVKPGTKSKLPKPVQELVGMIFDVDSMKKALVEYEIDLQKMPLGKLSRRQIQAAYSILSEVQQPVSQGSSESQILDLSNRFYTLIPHDFGMKKPPLLNNADSVQAKVEMLDNLLDIEVAYSLLRGGSDDSSKDPIDVNYEKLKTDIKVVDRDSEEAEVIRKYVKNTHATTHNAYDLEVIDIFKIEREGESQRYKPFRQLHNRRLLWHGSRTTNFAGILSQGLRIAPPEAPVTGYMFGKGIYFADMVSKSANYCHTSQGDPIGLIMLGEVALGNMYELKHASHISKLPKGKHSVKGLGKTTPDPSASITLEGVEVPLGTGIPSGVNDTALLYNEYIVYDIAQVNLKYLLKLKFNFKTSLW
# Target: DHX9 (mouse (endogenous in NIH-3T3)), O70133
# Test: co-IP; lysates of NIH-3T3 cells (untreated, Olaparib- or Camptothecin-treated) immunoprecipitated with anti-PARP1 or anti-DHX9 antibody (4 h, 4 °C), Protein A/G magnetic beads, Western blot with the other antibody
# Settings: remark: other sources report otherwise
binder,measurement,value
B1,binding,binds
